# PubChem BioAssay AID1259254 – NCATS, 2017
# Aim: 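Gene knock-downs that lead to re-replication, shown by excess G2 DNA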 (primary screen)
# Cell system: human HCT116 colorectal cancer cells
# Reagent: single siRNA against human genes
# Time to read-out: 3 days
# Detection: 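Imaged Hoechst DNA stain sorts each cell into a cycle phase by DNA amount; per plate, G2 fraction set to 0% for non-targeting and 100% for GMNN siRNA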
# Reading the numbers: G2 robust z-score and G2 cells, % of GMNN control: higher = more G2 cells, more excess DNA replication
# Hit rule: 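An siRNA counts as active if its G2 robust z-score lies at least 5 MADs above the screen median; here such calls match roughly 38% of GMNN control or more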
# The deposit covers about 59,000 reagents; below is an unselected part. Of all reagents, about 1,550 (2.6%) were called active. 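G2 share is only a proxy for re-replication; each gene was hit by three separate siRNAs, and active genes were retested.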 Not all columns of the deposit are shown. No sequences are given here. Not given: the amount of reagent.
Target gene,PubChem SID,G2 robust z-score,"G2 cells, % of GMNN control",Outcome
ZNF14 (GeneID 7561),SID160719005,0.145,3.99,inactive
ZNF14 (GeneID 7561),SID160719006,-0.224,1.39,inactive
ZNF14 (GeneID 7561),SID160719007,-0.136,2.01,inactive
LGR4 (GeneID 55366),SID160743653,1.56,13.9,inactive
LGR4 (GeneID 55366),SID160743654,-0.928,-3.56,inactive
LGR4 (GeneID 55366),SID160743655,-0.249,1.22,inactive
DPY19L1 (GeneID 23333),SID160736035,2.43,20.1,inactive
DPY19L1 (GeneID 23333),SID160736036,1.23,11.6,inactive
DPY19L1 (GeneID 23333),SID160736037,-0.361,0.426,inactive
HS1BP3 (GeneID 64342),SID160747675,0.211,4.45,inactive
HS1BP3 (GeneID 64342),SID160747676,2.27,19,inactive
HS1BP3 (GeneID 64342),SID160747677,-0.662,-1.69,inactive
PLPPR5 (GeneID 163404),SID160760043,-0.256,1.17,inactive
PLPPR5 (GeneID 163404),SID160760044,-1.3,-6.15,inactive
PLPPR5 (GeneID 163404),SID160760045,0.238,4.64,inactive
BPI (GeneID 671),SID160728786,3.84,30,inactive
BPI (GeneID 671),SID160728797,-0.278,1.01,inactive
BPI (GeneID 671),SID160728806,-0.268,1.08,inactive
BEGAIN (GeneID 57596),SID160746375,-0.667,-1.72,inactive
BEGAIN (GeneID 57596),SID160746376,-0.605,-1.29,inactive
BEGAIN (GeneID 57596),SID160746377,0.183,4.26,inactive
LRRC75B (GeneID 388886),SID160733220,-0.814,-2.76,inactive
LRRC75B (GeneID 388886),SID160766013,3.2,25.5,inactive
LRRC75B (GeneID 388886),SID160766015,0.29,5.01,inactive
SLC26A11 (GeneID 284129),SID160763188,5.09,38.8,active
SLC26A11 (GeneID 284129),SID160763189,-0.619,-1.39,inactive
SLC26A11 (GeneID 284129),SID160763190,0.154,4.05,inactive
TRMT112 (GeneID 51504),SID160740900,-0.551,-0.911,inactive
TRMT112 (GeneID 51504),SID160740901,-0.329,0.656,inactive
TRMT112 (GeneID 51504),SID160740903,-0.619,-1.39,inactive
LOC644285 (GeneID 644285),SID160769174,-0.133,2.03,inactive
LOC644285 (GeneID 644285),SID160769175,-0.23,1.35,inactive
LOC644285 (GeneID 644285),SID160769176,-0.962,-3.8,inactive
KCTD16 (GeneID 57528),SID160746185,0.0926,3.62,inactive
KCTD16 (GeneID 57528),SID160746187,-0.995,-4.04,inactive
KCTD16 (GeneID 57528),SID160746188,-0.854,-3.04,inactive
FAM135A (GeneID 57579),SID160746328,0.143,3.97,inactive
FAM135A (GeneID 57579),SID160746329,-0.0485,2.63,inactive
FAM135A (GeneID 57579),SID160746330,-0.593,-1.21,inactive
MTMR11 (GeneID 10903),SID160729473,0.153,4.05,inactive
MTMR11 (GeneID 10903),SID160729474,0.136,3.92,inactive
MTMR11 (GeneID 10903),SID160729475,2.55,20.9,inactive
PLA2G12B (GeneID 84647),SID160752510,0.4,5.78,inactive
PLA2G12B (GeneID 84647),SID160752511,1.21,11.5,inactive
PLA2G12B (GeneID 84647),SID160752512,-0.378,0.308,inactive
PPFIA3 (GeneID 8541),SID160720287,-1.01,-4.17,inactive
PPFIA3 (GeneID 8541),SID160720288,-0.747,-2.29,inactive
PPFIA3 (GeneID 8541),SID160720289,1.3,12.1,inactive
PAQR5 (GeneID 54852),SID160742318,1.07,10.5,inactive
PAQR5 (GeneID 54852),SID160742319,1.15,11,inactive
PAQR5 (GeneID 54852),SID160742320,-0.242,1.26,inactive
ARPP19P1 (GeneID 646227),SID160769812,0.729,8.1,inactive
ARPP19P1 (GeneID 646227),SID160769813,-0.259,1.15,inactive
ARPP19P1 (GeneID 646227),SID160769814,-0.086,2.36,inactive
C4orf17 (GeneID 84103),SID160751728,1.21,11.5,inactive
C4orf17 (GeneID 84103),SID160751729,-0.851,-3.02,inactive
C4orf17 (GeneID 84103),SID160751730,-0.74,-2.24,inactive

Taken from above.
Result of DPY19L1 (GeneID 23333) [SID160736037] in “G2 robust z-score”: -0.361
Under “Outcome”, ARPP19P1 (GeneID 646227) [SID160769812] shows inactive
Entry of KCTD16 (GeneID 57528) [SID160746188] under “G2 cells, % of GMNN control”: -3.04
DPY19L1 (GeneID 23333) [SID160736036], G2 robust z-score = 1.23
For “G2 robust z-score”, HS1BP3 (GeneID 64342) [SID160747676] reads 2.27
Under “G2 cells, % of GMNN control”, BEGAIN (GeneID 57596) [SID160746376] reads -1.29

The list goes on.
Target gene,PubChem SID,G2 robust z-score,"G2 cells, % of GMNN control",Outcome
OSBPL3 (GeneID 26031),SID160730914,-0.846,-2.98,inactive
OSBPL3 (GeneID 26031),SID160737486,1.55,13.9,inactive
OSBPL3 (GeneID 26031),SID160737487,-0.749,-2.3,inactive
LY75 (GeneID 4065),SID160776800,-0.661,-1.68,inactive
LY75 (GeneID 4065),SID160776801,-0.832,-2.89,inactive
LY75 (GeneID 4065),SID160776802,1.65,14.5,inactive
THEMIS (GeneID 387357),SID160765591,0.0276,3.16,inactive
THEMIS (GeneID 387357),SID160765592,-0.311,0.781,inactive
THEMIS (GeneID 387357),SID160765593,-1.12,-4.88,inactive
COP1P1 (GeneID 729391),SID160772715,3.68,28.9,inactive
COP1P1 (GeneID 729391),SID160772716,3.02,24.2,inactive
COP1P1 (GeneID 729391),SID160772717,0.318,5.2,inactive
HGFAC (GeneID 3083),SID160774932,-1.73,-9.24,inactive
HGFAC (GeneID 3083),SID160774933,1.49,13.5,inactive
HGFAC (GeneID 3083),SID160774934,-0.0983,2.28,inactive
LINC01242 (GeneID 401497),SID160767306,-0.132,2.04,inactive
LINC01242 (GeneID 401497),SID160767307,1.44,13.1,inactive
LINC01242 (GeneID 401497),SID160767308,1.28,11.9,inactive
OR2A14 (GeneID 135941),SID160757440,-0.667,-1.72,inactive
OR2A14 (GeneID 135941),SID160757441,8.7,64.2,active
OR2A14 (GeneID 135941),SID160757442,-0.689,-1.88,inactive
SLC39A1 (GeneID 27173),SID160730968,-0.231,1.34,inactive
SLC39A1 (GeneID 27173),SID160738502,0.312,5.16,inactive
SLC39A1 (GeneID 27173),SID160738503,-1.12,-4.94,inactive
FLRT1 (GeneID 23769),SID160736866,0.182,4.25,inactive
FLRT1 (GeneID 23769),SID160736867,-0.273,1.05,inactive
FLRT1 (GeneID 23769),SID160736868,0.533,6.72,inactive
MIR99AHG (GeneID 388815),SID160733216,0.739,8.16,inactive
MIR99AHG (GeneID 388815),SID160766002,0.279,4.93,inactive
MIR99AHG (GeneID 388815),SID160766003,-0.586,-1.16,inactive
